Reference: PubChem BioAssay AID1259254 (NCATS, 2017)

Purpose: 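Finding genes that stop cells copying their DNA twice in one cycle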 (primary screen)
System: human HCT116 colorectal cancer cells
Knock-down reagent: single siRNA against human genes
Timing: 3 days
Read-out: 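Imaged Hoechst DNA stain sorts each cell into a cycle phase by DNA amount; per plate, G2 fraction set to 0% for non-targeting and 100% for GMNN siRNA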
Direction: G2 robust z-score and G2 cells, % of GMNN control: higher = more G2 cells, more excess DNA replication; raw share of cells in G2: higher = larger share of cells with G2 DNA content
Call rule: 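Active siRNAs have a G2 robust z of 5 or more median absolute deviations over the median, which in these data means about 38% or higher of GMNN control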
In all, the deposit lists about 59,000 reagents; shown is an unselected part. In the full data, about 1,550 (2.6%) were called active. 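G2 share is only a proxy for re-replication; each gene was hit by three separate siRNAs, and active genes were retested.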 Raw values are not corrected between plates. Reagents against one gene are numbered here. The record does not give: the amount of reagent.

gene	siRNA no.	G2 robust z-score	G2 cells, % of GMNN control	raw share of cells in G2 (%)	activity call
ESM1	1	1.16	11.1	10.8	inactive
ESM1	2	-0.484	-0.439	4.01	inactive
ESM1	3	3.58	28.1	13.5	inactive
GLMP	1	-1.01	-4.15	2.43	inactive
GLMP	2	-0.238	1.29	3.71	inactive
GLMP	3	-0.598	-1.24	1.46	inactive
TUBD1	1	2.48	20.4	15.2	inactive
TUBD1	2	-0.237	1.3	4.72	inactive
TUBD1	3	-0.725	-2.14	2.98	inactive
MRPS16	1	-0.943	-3.67	2.45	inactive
MRPS16	2	2.47	20.4	12.2	inactive
MRPS16	3	0.0708	3.47	4.35	inactive
SAMD13	1	-0.0355	2.72	4.74	inactive
SAMD13	2	-1.25	-5.82	1.12	inactive
SAMD13	3	1.91	16.4	8.79	inactive
PPM1M	1	1.57	14	9.36	inactive
PPM1M	2	-1.07	-4.58	2.92	inactive
PPM1M	3	1.09	10.6	6.69	inactive
DERL2	1	1.3	12.1	11.5	inactive
DERL2	2	3.25	25.8	13.8	inactive
DERL2	3	11.4	83.5	35.8	active
FAM167B	1	0.236	4.62	4.83	inactive
FAM167B	2	0.76	8.32	4.93	inactive
FAM167B	3	0.216	4.49	5.6	inactive

Next part, starting with the last 5 of the part before.
gene	siRNA no.	G2 robust z-score	G2 cells, % of GMNN control	raw share of cells in G2 (%)	activity call
DERL2	2	3.25	25.8	13.8	inactive
DERL2	3	11.4	83.5	35.8	active
FAM167B	1	0.236	4.62	4.83	inactive
FAM167B	2	0.76	8.32	4.93	inactive
FAM167B	3	0.216	4.49	5.6	inactive
ZNF484	1	1.26	11.8	6.96	inactive
ZNF484	2	0.519	6.62	8.9	inactive
ZNF484	3	1.01	10	6.79	inactive
LCNL1	1	0.759	8.31	6.83	inactive
LCNL1	2	4.34	33.5	16.8	inactive
LCNL1	3	-0.775	-2.49	3.76	inactive
CROCCP3	1	0.704	7.92	6.07	inactive
CROCCP3	2	-0.77	-2.45	3.13	inactive
CROCCP3	3	0.887	9.2	6.33	inactive
TRIM11	1	-1.41	-6.92	2.55	inactive
TRIM11	2	-0.45	-0.199	4.12	inactive
TRIM11	3	0.726	8.08	7.78	inactive
SLC35F1	1	-0.182	1.69	4.19	inactive
SLC35F1	2	0.749	8.23	5.95	inactive
SLC35F1	3	5.02	38.3	15.4	active
UQCRFS1P2	1	0.669	7.68	5.48	inactive
UQCRFS1P2	2	2.17	18.3	10.7	inactive
UQCRFS1P2	3	0.0624	3.41	4.49	inactive
HTR3C	1	0.212	4.46	6.91	inactive
HTR3C	2	0.124	3.84	6.08	inactive
HTR3C	3	-0.488	-0.463	4.19	inactive
PELI2	1	0.414	5.88	4.89	inactive
PELI2	2	0.117	3.79	5.84	inactive
PELI2	3	-0.299	0.864	4.87	inactive
